Results are given in words; binding and its absence hold for the method and conditions named. In cells and extracts the contact can be indirect. Some results given as binding are weak or reduced against the parent protein; the word gives no strength.
Experiments:
Experiment in all cases: co-IP; total protein extract of washed human platelets (about 5 mg), precleared with protein A; antibody (anti-myosin-9, anti-TLR4 or anti-Rab7b) at 4°C for 16 hrs, protein A sepharose; Western blot; platelets untreated or treated with thrombin or CaCl2, with or without calpeptin pretreatment
[1] = biological target: myosin heavy chain-9 (myosin-9) (human (endogenous in platelets)) (UniProt P35579)
[2] = biological target: T1, Rab7b (human (endogenous in platelets)) (UniProt Q96AH8)
T1 sequence: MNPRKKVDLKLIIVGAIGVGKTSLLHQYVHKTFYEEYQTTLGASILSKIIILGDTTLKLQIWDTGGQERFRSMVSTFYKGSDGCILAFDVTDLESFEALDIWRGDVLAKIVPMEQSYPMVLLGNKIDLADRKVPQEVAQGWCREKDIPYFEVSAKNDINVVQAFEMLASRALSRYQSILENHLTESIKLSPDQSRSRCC

Chains of the proteins cited; added tags and fusions are not shown. Residues count along the entry.
UniProt P35579: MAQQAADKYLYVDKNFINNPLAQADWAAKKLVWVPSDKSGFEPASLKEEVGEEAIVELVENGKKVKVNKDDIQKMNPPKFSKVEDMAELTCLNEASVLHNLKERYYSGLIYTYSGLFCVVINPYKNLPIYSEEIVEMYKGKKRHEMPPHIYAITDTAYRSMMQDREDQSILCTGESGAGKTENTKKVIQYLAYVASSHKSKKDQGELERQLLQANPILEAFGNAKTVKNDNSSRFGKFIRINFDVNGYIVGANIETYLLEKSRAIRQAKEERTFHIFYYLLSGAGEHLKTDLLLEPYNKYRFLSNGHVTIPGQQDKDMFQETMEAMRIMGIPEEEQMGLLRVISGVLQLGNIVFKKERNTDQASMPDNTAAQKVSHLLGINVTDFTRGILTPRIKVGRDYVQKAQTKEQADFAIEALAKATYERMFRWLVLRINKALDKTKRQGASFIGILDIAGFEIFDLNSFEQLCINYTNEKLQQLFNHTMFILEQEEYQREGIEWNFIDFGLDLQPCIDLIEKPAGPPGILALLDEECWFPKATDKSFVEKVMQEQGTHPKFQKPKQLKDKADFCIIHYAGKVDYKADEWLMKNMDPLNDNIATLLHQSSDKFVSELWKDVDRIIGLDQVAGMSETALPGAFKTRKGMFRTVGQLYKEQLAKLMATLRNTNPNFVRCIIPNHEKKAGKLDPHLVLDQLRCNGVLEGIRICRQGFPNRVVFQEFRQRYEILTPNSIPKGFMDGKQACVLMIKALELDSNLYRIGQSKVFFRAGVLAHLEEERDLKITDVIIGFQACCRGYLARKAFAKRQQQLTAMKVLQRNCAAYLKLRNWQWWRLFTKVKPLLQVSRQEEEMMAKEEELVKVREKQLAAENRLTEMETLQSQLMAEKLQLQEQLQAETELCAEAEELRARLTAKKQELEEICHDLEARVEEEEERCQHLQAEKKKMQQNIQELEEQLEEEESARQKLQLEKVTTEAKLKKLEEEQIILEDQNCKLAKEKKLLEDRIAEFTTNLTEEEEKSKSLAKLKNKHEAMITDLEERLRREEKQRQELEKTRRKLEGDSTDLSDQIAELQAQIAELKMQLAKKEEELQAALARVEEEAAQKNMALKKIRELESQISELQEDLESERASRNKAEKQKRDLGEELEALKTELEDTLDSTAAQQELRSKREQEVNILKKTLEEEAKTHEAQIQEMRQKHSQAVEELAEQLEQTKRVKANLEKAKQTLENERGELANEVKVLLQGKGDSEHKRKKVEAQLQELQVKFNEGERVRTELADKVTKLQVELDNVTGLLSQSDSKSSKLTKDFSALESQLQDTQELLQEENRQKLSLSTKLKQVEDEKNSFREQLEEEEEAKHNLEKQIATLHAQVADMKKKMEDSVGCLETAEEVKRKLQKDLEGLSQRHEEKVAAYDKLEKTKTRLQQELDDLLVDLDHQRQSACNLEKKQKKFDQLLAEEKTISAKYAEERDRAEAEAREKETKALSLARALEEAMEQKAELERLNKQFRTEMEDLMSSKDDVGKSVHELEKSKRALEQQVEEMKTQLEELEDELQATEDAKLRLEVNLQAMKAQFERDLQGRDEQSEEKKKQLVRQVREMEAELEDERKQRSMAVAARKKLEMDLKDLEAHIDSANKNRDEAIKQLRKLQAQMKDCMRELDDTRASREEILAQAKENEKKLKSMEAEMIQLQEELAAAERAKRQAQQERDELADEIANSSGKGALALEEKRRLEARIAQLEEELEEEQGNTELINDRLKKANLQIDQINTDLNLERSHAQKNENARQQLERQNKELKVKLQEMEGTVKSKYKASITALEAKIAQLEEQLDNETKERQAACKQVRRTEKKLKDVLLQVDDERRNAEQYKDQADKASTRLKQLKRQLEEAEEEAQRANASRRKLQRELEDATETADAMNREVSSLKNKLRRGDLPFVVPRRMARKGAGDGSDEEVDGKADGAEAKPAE
UniProt O00206, residues 24-839: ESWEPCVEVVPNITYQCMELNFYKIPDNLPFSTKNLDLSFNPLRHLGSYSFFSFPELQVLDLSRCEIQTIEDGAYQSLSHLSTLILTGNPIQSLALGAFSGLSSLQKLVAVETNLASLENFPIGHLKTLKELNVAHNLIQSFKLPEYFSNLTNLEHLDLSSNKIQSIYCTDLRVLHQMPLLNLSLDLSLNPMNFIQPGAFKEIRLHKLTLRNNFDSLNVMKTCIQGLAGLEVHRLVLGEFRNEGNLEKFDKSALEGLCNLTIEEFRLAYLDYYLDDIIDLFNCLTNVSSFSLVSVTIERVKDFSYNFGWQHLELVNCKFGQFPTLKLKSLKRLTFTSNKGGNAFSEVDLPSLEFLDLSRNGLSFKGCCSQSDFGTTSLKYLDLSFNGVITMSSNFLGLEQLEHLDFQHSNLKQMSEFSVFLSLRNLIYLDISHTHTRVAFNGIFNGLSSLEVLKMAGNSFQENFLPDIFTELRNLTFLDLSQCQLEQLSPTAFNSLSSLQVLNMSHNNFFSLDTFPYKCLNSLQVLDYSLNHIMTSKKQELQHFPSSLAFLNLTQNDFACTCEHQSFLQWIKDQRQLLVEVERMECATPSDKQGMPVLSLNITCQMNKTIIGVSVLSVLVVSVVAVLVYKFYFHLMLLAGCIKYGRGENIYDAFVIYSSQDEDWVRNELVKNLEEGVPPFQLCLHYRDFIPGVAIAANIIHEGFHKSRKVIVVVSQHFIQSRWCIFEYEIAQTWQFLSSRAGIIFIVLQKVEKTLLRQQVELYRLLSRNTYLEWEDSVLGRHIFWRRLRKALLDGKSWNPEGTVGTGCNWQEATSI

[3] = biological target: Toll-like receptor 4 (human (endogenous in platelets)) (UniProt O00206)

| binding [1] | binding [2] | binding [3] | Substance |
| --- | --- | --- | --- |
| binds |  |  | Toll-like receptor 4 (from UniProt O00206 24-839) |
|  | binds | binds | myosin heavy chain-9 (myosin-9) (from UniProt P35579 1-1960) |
